Measurements taken from PMC10361663.
No constants are given. Whether binding was seen depends on the method and setting. Binding seen in cells or lysates may run through a third protein. A result given as binding can be weak or reduced; the word gives no strength.

Biological target: T1, HURP (Hepatoma Upregulated Protein) (human (endogenous in HeLa Kyoto)) (UniProt Q15398)
T1 sequence: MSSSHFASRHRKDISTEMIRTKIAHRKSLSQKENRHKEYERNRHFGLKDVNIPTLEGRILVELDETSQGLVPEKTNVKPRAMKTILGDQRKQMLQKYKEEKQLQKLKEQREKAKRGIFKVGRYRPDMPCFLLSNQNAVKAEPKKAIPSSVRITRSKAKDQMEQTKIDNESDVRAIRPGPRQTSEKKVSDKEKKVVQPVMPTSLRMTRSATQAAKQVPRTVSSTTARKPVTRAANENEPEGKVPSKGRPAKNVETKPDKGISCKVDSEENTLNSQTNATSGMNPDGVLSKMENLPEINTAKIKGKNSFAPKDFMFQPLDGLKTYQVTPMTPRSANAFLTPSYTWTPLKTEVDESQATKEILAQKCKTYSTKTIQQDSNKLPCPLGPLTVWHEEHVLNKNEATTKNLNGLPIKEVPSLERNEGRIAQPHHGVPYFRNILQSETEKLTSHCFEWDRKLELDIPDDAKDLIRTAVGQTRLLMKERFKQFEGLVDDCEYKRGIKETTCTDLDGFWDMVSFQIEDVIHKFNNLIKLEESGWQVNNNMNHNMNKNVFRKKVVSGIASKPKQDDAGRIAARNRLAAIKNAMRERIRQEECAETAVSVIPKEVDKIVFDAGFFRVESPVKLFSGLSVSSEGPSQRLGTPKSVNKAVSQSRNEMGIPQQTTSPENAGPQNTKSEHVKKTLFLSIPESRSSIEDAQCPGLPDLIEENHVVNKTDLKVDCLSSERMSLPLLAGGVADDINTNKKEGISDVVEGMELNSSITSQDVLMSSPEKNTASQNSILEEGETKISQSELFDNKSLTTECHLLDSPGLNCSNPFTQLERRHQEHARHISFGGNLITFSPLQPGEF
Experiment: co-IP; HeLa Kyoto mitotic cell extracts (Nocodazole arrest, RIPA buffer, 1 mg per IP); IP with anti-HURP antibodies (ab70744, GKAP or DHL5 antisera) on protein A agarose, 4°C; Western blot; controls pre-immune IgG, rabbit IgG or anti-GFP antibody

- binding: binds
Substance: Dynein (human (endogenous in HeLa Kyoto))
